Experimental data reported in publication PMC4282331.
These are yes or no findings as the source states them, for the method shown. Some entries that bind do so weakly or less than the wild type. Where a sequence is shown, tags or fusion partners need not be part of it.

Target: T1, GST-tagged Apm4 mu homology domain (amino acids 179-491) (S. cerevisiae) (UniProt Q99186)
T1 sequence: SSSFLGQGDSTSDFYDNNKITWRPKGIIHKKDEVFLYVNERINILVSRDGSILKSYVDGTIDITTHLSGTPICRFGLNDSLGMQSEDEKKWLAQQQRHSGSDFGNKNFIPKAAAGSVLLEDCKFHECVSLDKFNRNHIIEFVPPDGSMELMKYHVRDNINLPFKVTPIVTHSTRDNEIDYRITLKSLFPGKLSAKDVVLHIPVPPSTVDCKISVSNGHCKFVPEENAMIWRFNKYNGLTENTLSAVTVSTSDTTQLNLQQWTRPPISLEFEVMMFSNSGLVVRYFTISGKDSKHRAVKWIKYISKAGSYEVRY
Assay: pull-down; GST-tagged Apm4, Apm4 mutant or GST only bound to glutathione sepharose beads, blocked overnight; 50 mM NaCl, 20 mM sodium phosphate pH 7.5, 1 mM MgCl2, 5% BSA, 10% glycerol; recombinant His-Mid2 tail incubated 30 min, 3 washes; Mid2 detected by anti-His western blot; two concentrations of Mid2 (Figure 5A), 20 µM Mid2 (Figure S3); both purified

binding: binds weakly
B1: His-tagged cytoplasmic tail of Mid2 (aa 251-376) (domain or fragment, UniProt P36027 251-376)
chain: QSSRTDFIDSDGKVVTAYRANKFTKWWYMLLGKKVSDEYHSDSPLGGSASSAGGLDLDEADDVMEQSSLFDVRIRDSDSVLPNANTADHNNTNSGGEPINSSVASNDIIEEKFYDEQGNELSPRNY
